# The full ranking holds about 33,000 sequences; the median of “E-score (-0.5 to 0.5)” is about -0.0034, and the highest 2% start at about 0.25. The list shows a part of the results.
# Biological target: T1, Yap3 (UniProt P38749)
# T1 sequence: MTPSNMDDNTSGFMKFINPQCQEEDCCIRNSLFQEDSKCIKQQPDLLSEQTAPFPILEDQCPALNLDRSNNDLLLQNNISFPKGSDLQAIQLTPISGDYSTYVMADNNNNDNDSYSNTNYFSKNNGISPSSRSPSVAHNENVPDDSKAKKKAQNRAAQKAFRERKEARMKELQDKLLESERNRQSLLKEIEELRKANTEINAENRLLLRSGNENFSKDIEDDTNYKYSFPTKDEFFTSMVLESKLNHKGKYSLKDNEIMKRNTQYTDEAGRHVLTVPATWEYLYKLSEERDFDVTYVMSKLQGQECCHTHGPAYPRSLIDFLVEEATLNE
# Assay: PBM E-score (8-mer binding enrichment) (E-score (-0.5 to 0.5)); higher = stronger / more preferred TF binding
# Conditions: protein concentration: 100 nM; construct: GST-full length
# Outline: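 Universal all-10-mer Agilent arrays, double-stranded by primer extension on fresh or once-stripped slides, were probed with about 100-200 nM GST-tagged yeast transcription factors made by PURExpress. Fluorescent anti-GST detected bound protein, and masliner normalised the scans. E-scores from the Universal PBM Analysis Suite were given to each ungapped eight-base word pooled with its reverse complement.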
row,Sequence,PBM E-score
1,ACCCCGGT,-0.284
2,AGCCGAAG,-0.0551
3,GAACGTTC,-0.168
4,ATTGCCAC,0.0447
5,AGCGATTA,0.00413
6,GAGCGTAC,-0.0951
7,CTGAAAAG,0.0582
8,CCGTGGCC,-0.154
9,ATCCATGA,-0.00451
10,CAGGACCA,-0.062
11,CCTTGCAC,0.0279
12,CTGAGCAA,-0.131
13,CATGCTCA,0.0168
14,AGCCTTCG,-0.143
15,CATGCCTC,0.0696
16,AGTAGGCC,-0.124
17,AACTGGTC,0.0455
18,GCCGCGTA,-0.0697
19,AGAGGGTG,-0.219
20,CAGGCAGA,-0.0495
21,GTAGCTAA,-0.0001
22,CTAGCGGC,-0.328
23,CGTGAAAG,0.0888
24,ACTGCCCA,-0.107
25,ACCAGCTA,0.0261

row,Sequence,PBM E-score
1,ATTATCCC,0.0831
2,ATGCGCAA,0.0772
3,GTCTGCGA,-0.153
4,AGATGATC,-0.0162
5,AGTCGTCG,-0.184
6,CGTCATTC,0.191
7,TGCAAGCA,-0.143
8,CTAAGTGC,-0.0725
9,CCATAGGG,-0.0755
10,AAAGGCGT,-0.108
11,AACCAAGG,0.147
12,GCCTCAAA,-0.0442
13,GGTTATAA,0.204
14,CAACCACG,0.0756
15,CTGCAGGC,-0.26
16,GCTAAACA,0.018
17,CTATGCCA,-0.0466
18,ATCGTGGA,0.0289
19,GAAGCGAC,-0.00391
20,AAGCCTAT,0.106
21,CGAGGATA,0.0814
22,CGGAGAGC,-0.117
23,AGCTAAAT,-0.0986
24,ATATGGCC,-0.12
25,GAAAACTA,0.16

row,Sequence,PBM E-score
1,CTCGATTA,0.157
2,CGGGCGTC,-0.0573
3,GCAAGGCA,-0.0753
4,AGAGTTGC,-0.00022
5,ACGTGGCT,-0.0617
6,GGAAACAC,0.138
7,TGCACCAA,-0.0224
8,AACGTTGA,0.118
9,TATGTTCA,0.182
10,AGGCTGCC,-0.24
11,CATACACC,0.0314
12,AACACACG,-0.0404
13,ATTGCCTC,0.156
14,CGATTGTA,0.181
15,CAAGGGTA,-0.118
16,ACTGGTAA,0.184
17,GCCGCAGA,0.00175
18,CATTTCAG,-0.0214
19,GCTCGCCA,-0.0002
20,AAACGTGA,0.145
21,AGCAGTTG,0.0505
22,GCTCCCAA,-0.146
23,GCAGATGC,-0.011
24,AATGCTTG,-0.0993
25,TTGCTAAA,0.0114

# In a second layout: results already given.
row	Sequence	PBM E-score
4	AGAGTTGC	-0.00022
5	ACGTGGCT	-0.0617
6	GGAAACAC	0.138
7	TGCACCAA	-0.0224
8	AACGTTGA	0.118

# Single values from above:
# Entry for GCAAGGCA under PBM E-score: -0.0753
# Entry for TATGTTCA under PBM E-score: 0.182
# Entry for CGATTGTA under PBM E-score: 0.181

# (further entries)

row,Sequence,PBM E-score
1,GTCCGCCA,-0.134
2,ACATTGTA,0.14
3,AAGCCAAT,0.0764
4,CACAGGCG,-0.0961
5,TAACAAAA,0.192
6,TCGTTGCA,0.0439
7,GGCCACAC,-0.11
8,CACTCCAC,0.0113
9,ACGCTTCG,-0.121
10,CGCCGGCC,-0.299
11,ATCTAGGC,-0.0921
12,TCACGAAA,0.142
13,AGACTCCT,-0.128
14,AAGGCTCG,-0.256
15,CCCTTCGG,-0.253
16,ACCGCGGC,0.00754
17,CAACCTGC,-0.0299
18,ACTACCGC,-0.1
19,AGACTCCC,-0.355
20,TGCCTCAA,-0.135
21,CCTATTAC,0.176
22,CGCGATCA,0.0932
23,AGGTGGTA,0.0318
24,ACGACCCT,-0.204
25,CACCTCTG,-0.049

row,Sequence,PBM E-score
1,CTCTCCAC,-0.146
2,AATCCAAC,0.0433
3,ACGTTTCT,0.126
4,GCGAATGA,0.149
5,CGTCTTTC,-0.075
6,CGCTTATA,0.146
7,ACTTTCTG,0.0731
8,CGACGAAC,-0.0266
9,GCAGTAGA,-0.156
10,AAGCAAAG,0.0645
11,AGATGCCC,0.00381
12,CTGTGTCA,0.0331
13,CGACAGAA,0.172
14,GAGTCTAA,0.00387
15,ACAAAGGG,-0.102
16,CGGCTACG,-0.169
17,GCTTTCAA,0.0571
18,CGTGCCAC,-0.0402
19,CATCCGAG,0.0382
20,CGTGTTAA,0.127
21,GGCACACA,-0.131
22,AGGCGCGC,0.0964
23,CTCCTGCA,-0.133
24,ATACTGTC,0.0858
25,AGAAGTCA,0.0764

# Reprinted at random: 2 entries already listed.
row,Sequence,PBM E-score
11,AGATGCCC,0.00381
22,AGGCGCGC,0.0964

# More records:

row,Sequence,PBM E-score
1,AGAGAACG,0.0243
2,ATGTTTAA,-0.0034
3,ATCACAAA,0.158
4,GCCAGGGA,-0.141
5,AACATCGA,0.229
6,CACAGCCG,-0.00488
7,CTCAGAAC,0.114
8,AGTCCTTA,0.0117
9,CCGTTAAA,0.139
10,GGAGCTCA,-0.256
11,ATTGCTAG,-0.107
12,ACAGGCTC,-0.19
13,AGCGTGGA,-0.0213
14,CGGTTCAA,-0.139
15,GGGGTAAC,-0.0441
16,AATAGTAC,0.0612
17,CGATGAGC,-0.0563
18,ATCGGGCG,-0.21
19,ATGCGCAT,0.315
20,GCGTGAAC,-0.192
21,CTATGAAG,0.0547
22,AAGGTGGC,-0.0793
23,CGTTTGAA,0.0604
24,CGTACGAG,-0.00494
25,GGTGCTTA,0.0052

row,Sequence,PBM E-score
1,ACTCTATC,0.0743
2,CAAATCGA,0.0115
3,ATACGTTC,0.0399
4,ACAGTACG,0.0519
5,GATACGAA,0.0436
6,CCGCAATA,0.245
7,CAACAAAG,0.146
8,GACGCCGC,-0.176
9,ACCCGGCA,-0.192
10,AAATAATT,0.287
11,ATTTTGCG,0.155
12,CCGTCGAG,0.0879
13,GCGCCCCC,-0.357
14,AAGGGTTA,0.013
15,AGTAGGGA,-0.0677
16,ATCTCCTC,-0.0278
17,CTACGCTC,-0.122
18,AGTAAAAA,0.208
19,GCTCTGTA,-0.055
20,AGCCTCAC,-0.0914
21,CCGAATGA,0.0795
22,CGGCGCAC,0.0439

# — the supplement of paper PMC3334620
